Among the data in the supplement of paper PMC10849652 are log2 fold change values, retold here.

The chains behind the UniProt entries cited, without tags or fusion partners. Where a name states a change or a piece, a line headed by the entry shows the natural chain unless it says otherwise.
UniProt Q9UKI8: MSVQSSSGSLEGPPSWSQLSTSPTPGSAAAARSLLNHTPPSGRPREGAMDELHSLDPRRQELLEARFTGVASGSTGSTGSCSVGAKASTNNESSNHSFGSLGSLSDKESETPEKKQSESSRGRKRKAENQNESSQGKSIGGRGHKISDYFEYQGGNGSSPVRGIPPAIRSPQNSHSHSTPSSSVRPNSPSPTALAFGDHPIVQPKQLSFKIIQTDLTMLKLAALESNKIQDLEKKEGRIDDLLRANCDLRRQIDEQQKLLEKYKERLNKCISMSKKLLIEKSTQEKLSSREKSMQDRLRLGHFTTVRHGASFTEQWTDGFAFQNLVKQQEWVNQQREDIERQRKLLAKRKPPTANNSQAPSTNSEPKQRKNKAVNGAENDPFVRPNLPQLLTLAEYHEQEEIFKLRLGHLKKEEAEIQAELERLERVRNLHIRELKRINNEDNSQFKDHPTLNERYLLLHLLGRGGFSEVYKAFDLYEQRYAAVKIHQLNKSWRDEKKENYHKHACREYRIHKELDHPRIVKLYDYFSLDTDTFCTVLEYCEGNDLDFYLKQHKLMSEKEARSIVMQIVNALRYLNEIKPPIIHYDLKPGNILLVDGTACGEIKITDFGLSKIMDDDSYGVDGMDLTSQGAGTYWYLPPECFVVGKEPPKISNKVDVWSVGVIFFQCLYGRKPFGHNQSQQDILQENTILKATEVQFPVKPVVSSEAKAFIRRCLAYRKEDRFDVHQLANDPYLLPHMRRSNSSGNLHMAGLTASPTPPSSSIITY
UniProt Q99805: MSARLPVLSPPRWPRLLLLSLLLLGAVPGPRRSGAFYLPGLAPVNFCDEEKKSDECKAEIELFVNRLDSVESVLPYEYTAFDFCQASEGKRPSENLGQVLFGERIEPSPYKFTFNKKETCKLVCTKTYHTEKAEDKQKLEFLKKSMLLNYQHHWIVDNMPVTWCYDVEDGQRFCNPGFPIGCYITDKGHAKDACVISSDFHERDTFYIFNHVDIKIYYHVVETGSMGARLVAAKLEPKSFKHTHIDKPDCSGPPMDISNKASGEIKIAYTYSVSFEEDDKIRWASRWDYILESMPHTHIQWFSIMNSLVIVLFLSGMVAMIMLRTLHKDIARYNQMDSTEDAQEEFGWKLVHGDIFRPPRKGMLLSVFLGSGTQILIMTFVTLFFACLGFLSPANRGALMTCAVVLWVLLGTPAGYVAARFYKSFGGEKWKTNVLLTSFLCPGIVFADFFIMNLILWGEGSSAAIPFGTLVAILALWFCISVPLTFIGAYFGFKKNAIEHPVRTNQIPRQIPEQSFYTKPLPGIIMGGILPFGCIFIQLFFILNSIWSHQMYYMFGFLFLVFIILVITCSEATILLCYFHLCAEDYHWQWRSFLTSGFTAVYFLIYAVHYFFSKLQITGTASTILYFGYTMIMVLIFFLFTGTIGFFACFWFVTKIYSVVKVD
UniProt Q9P2C4: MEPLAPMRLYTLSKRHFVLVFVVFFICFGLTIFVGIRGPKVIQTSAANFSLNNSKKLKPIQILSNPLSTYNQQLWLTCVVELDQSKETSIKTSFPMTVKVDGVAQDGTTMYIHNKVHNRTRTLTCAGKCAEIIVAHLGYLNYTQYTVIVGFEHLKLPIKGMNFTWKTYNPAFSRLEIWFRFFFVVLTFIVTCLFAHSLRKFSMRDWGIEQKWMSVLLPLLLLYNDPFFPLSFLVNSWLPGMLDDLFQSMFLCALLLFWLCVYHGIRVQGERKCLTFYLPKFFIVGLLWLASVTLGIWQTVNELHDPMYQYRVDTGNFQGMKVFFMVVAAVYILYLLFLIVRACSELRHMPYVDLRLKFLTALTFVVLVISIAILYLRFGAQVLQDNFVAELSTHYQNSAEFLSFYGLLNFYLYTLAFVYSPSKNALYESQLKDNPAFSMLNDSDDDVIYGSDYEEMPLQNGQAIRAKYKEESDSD
UniProt Q96MV1: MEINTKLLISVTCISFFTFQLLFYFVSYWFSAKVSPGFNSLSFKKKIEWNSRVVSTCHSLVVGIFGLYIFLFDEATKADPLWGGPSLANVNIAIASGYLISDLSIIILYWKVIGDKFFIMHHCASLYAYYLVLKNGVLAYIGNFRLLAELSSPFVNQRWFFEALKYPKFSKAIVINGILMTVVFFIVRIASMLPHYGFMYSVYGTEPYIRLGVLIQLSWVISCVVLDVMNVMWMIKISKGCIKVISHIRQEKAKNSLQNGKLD
UniProt Q12893: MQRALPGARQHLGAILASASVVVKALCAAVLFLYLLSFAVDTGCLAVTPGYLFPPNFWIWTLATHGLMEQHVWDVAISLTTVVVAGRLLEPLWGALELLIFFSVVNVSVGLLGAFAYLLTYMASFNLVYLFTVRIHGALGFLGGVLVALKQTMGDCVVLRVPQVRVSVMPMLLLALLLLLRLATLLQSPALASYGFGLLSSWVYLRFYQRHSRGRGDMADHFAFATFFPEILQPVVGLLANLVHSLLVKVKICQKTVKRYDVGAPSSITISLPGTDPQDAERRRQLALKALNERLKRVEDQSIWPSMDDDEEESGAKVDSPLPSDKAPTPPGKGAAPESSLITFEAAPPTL
UniProt Q9Y5J7: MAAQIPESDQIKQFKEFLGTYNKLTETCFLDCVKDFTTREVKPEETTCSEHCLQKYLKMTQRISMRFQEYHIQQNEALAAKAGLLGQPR
UniProt Q9BXJ8: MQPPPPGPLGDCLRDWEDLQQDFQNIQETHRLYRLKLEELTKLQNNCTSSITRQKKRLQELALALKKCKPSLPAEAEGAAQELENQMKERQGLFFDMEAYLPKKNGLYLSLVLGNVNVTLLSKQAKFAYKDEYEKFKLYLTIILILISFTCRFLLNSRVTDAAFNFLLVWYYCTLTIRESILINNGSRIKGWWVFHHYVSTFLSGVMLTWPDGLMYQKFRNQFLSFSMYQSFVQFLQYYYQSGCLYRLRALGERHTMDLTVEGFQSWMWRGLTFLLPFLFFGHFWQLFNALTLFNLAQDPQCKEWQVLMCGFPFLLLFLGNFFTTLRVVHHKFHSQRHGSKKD
UniProt Q92544: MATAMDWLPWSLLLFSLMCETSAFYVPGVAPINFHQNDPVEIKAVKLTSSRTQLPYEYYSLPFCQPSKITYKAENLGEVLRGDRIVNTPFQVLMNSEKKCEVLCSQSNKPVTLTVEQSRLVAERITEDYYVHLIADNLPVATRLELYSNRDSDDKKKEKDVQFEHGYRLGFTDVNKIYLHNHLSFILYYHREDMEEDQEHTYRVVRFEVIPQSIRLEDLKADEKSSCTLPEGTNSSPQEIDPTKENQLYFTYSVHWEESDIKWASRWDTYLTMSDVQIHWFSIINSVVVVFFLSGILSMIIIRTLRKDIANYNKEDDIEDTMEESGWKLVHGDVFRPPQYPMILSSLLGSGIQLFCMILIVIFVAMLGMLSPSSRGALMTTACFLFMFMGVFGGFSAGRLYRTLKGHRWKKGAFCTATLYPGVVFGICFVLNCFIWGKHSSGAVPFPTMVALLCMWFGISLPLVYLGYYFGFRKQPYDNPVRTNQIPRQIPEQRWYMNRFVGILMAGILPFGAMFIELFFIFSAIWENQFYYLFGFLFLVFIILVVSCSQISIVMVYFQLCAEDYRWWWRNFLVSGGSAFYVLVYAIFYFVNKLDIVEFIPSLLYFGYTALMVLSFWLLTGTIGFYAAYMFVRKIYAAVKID
UniProt Q07157: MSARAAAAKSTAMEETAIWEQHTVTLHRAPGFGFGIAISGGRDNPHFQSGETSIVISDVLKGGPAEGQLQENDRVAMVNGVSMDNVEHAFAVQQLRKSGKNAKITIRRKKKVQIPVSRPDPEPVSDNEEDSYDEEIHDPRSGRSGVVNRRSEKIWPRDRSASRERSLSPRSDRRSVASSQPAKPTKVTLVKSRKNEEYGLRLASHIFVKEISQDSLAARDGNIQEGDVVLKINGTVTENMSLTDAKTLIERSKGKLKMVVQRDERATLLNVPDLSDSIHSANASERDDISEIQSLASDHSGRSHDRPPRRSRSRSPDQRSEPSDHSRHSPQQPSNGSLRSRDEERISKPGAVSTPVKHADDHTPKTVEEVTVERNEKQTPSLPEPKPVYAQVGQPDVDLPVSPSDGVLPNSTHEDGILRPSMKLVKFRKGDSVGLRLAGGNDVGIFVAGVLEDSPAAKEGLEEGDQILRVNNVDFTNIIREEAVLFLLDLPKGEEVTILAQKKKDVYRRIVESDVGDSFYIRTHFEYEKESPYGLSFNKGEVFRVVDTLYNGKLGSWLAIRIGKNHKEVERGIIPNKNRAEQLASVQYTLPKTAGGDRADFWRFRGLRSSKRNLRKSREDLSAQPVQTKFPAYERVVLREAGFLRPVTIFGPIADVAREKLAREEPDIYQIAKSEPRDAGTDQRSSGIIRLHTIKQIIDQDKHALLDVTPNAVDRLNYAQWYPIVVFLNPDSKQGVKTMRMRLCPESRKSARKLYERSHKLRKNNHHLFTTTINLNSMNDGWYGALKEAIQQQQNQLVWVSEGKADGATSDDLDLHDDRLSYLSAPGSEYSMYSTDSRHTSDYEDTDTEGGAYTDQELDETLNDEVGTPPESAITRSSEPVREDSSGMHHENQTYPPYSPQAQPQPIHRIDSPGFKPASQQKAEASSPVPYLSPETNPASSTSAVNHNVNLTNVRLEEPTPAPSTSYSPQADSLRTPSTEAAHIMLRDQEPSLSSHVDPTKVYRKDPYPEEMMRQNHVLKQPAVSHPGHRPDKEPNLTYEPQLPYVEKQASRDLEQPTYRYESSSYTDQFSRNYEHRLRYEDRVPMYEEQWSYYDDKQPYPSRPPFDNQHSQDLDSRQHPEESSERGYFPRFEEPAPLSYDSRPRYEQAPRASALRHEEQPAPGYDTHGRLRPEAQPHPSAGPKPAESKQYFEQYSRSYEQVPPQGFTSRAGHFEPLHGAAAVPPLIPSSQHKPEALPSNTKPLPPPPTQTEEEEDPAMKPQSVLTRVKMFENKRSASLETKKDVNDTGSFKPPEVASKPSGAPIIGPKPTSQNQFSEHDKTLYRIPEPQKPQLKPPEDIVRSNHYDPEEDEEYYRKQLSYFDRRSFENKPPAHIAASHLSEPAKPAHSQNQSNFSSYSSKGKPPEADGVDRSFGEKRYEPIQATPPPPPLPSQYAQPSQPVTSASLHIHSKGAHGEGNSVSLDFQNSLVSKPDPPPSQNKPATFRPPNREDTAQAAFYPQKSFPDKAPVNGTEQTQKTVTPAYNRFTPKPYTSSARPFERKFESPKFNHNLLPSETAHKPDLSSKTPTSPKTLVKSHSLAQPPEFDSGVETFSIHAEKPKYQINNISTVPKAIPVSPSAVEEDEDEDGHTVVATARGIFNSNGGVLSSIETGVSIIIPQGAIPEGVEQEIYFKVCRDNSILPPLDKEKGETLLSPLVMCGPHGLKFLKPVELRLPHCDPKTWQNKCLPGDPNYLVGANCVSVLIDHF
UniProt Q04727: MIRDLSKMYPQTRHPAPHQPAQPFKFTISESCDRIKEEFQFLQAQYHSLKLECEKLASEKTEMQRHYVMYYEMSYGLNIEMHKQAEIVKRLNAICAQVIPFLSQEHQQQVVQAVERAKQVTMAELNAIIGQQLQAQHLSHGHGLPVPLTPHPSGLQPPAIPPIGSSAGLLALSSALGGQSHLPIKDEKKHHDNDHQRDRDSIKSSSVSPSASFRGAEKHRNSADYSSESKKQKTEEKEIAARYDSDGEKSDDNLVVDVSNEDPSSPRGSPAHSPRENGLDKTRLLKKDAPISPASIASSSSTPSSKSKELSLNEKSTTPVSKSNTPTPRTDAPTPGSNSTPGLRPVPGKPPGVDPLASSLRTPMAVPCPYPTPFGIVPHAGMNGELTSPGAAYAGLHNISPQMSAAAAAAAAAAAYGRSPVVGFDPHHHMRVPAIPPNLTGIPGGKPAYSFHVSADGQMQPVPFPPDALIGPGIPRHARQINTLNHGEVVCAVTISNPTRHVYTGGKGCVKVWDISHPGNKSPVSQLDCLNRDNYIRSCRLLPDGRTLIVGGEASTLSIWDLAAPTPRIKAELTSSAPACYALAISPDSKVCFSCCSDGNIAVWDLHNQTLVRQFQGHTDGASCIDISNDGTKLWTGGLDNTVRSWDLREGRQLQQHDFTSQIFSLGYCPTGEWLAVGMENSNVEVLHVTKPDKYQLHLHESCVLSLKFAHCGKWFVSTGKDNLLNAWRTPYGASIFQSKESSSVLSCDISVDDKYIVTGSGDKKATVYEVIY
UniProt Q13445: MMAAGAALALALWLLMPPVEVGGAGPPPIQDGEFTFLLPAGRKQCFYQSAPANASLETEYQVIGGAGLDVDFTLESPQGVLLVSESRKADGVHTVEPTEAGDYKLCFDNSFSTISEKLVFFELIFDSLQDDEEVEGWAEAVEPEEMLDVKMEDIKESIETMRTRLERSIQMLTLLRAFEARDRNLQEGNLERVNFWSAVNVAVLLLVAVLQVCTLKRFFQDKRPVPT
UniProt Q9UM00: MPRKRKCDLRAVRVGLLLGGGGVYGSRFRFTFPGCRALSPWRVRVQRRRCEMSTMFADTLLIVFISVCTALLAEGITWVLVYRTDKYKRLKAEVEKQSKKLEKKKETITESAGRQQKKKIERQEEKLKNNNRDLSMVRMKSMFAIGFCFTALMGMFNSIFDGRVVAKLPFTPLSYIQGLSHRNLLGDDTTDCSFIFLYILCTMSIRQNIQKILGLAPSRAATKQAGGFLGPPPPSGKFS

This is one part of the list.

Compound in this test: NCC(=O)Nc1ccc(-n2nc(C(F)(F)F)cc2-c2ccc3c(ccc4ccccc43)c2)cc1
The experiment in a line: log2 fold change, soluble protein after heating vs DMSO (PISA); higher = thermal stabilisation; K562 lysate, 10 uM; active = over 0.2 and 3.5 SD of the protein, either way, in both replicates (recomputed). The gist of the method: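 The values are log-two fold changes in thermal stability compared with solvent controls and come from duplicates. They were obtained by TMTpro 16plex LC-MS/MS, with channel sums equalised, on the supernatant after 21,000xg for 90 min. That supernatant came from crude K562 extract at 1 mg/mL protein treated with 10 μM compound for 30 min, heated for 3 min across 48°C-58°C, pooled and brought to 0.5% NP-40 at 4°C.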
Turning to TMED8 (UniProt Q6PL24), the log2 fold change was inactive: 0.022.
Regarding TLK1 isoform 2 (UniProt Q9UKI8), the log2 fold change was inactive: 0.001.
The same measure for TM9SF3 (UniProt Q9HD45): inactive: -0.013; for TM9SF2 (UniProt Q99805): inactive: 0.02.
The same measure for TMEM181 (UniProt Q9P2C4): inactive: -0.271; for TLCD4 (UniProt Q96MV1): inactive: -0.045; for TMEM115 (UniProt Q12893): inactive: -0.002.
For the target TIMM9 (UniProt Q9Y5J7), the log2 fold change was inactive: -0.027.
For the target TMEM120A (UniProt Q9BXJ8), the log2 fold change was inactive: 0.111.
The same measure for TICAM2 isoform 2 (UniProt Q86XR7): inactive: -0.018; for TIGAR (UniProt Q9NQ88): inactive: -0.098; for TM9SF4 (UniProt Q92544): inactive: 0.038.
The same measure for TMEM173 (UniProt Q86WV6): inactive: -0.063.
On to TJP1 isoform 2 (UniProt Q07157), for which the log2 fold change is inactive: 0.029.
In the case of TMCO6 isoform 2 (UniProt Q96DC7), the log2 fold change was inactive: 0.188.
On to TLK2 isoform 2 (UniProt Q86UE8), for which the log2 fold change was inactive: 0.019.
As to TLE4 isoform 3 (UniProt Q04727), the log2 fold change is inactive: -0.001.
Consider TMEM106B (UniProt Q9NUM4), for which the log2 fold change is inactive: -0.007.
The same measure for TMED1 (UniProt Q13445): inactive: -0.116; for THEMIS2 (UniProt Q5TEJ8): inactive: -0.029; for TMEM165 (UniProt Q9HC07): inactive: -0.024.
For the target TMCO1 (UniProt Q9UM00), the log2 fold change was inactive: -0.05.
